Experimental data as given in US20120094864A1.
These are yes or no findings as the source states them, for the method shown. Some entries that bind do so weakly or less than the wild type.

The chains behind the UniProt entries cited, without tags or fusion partners. Residues count along the entry.
UniProt P21802, residues 22-821: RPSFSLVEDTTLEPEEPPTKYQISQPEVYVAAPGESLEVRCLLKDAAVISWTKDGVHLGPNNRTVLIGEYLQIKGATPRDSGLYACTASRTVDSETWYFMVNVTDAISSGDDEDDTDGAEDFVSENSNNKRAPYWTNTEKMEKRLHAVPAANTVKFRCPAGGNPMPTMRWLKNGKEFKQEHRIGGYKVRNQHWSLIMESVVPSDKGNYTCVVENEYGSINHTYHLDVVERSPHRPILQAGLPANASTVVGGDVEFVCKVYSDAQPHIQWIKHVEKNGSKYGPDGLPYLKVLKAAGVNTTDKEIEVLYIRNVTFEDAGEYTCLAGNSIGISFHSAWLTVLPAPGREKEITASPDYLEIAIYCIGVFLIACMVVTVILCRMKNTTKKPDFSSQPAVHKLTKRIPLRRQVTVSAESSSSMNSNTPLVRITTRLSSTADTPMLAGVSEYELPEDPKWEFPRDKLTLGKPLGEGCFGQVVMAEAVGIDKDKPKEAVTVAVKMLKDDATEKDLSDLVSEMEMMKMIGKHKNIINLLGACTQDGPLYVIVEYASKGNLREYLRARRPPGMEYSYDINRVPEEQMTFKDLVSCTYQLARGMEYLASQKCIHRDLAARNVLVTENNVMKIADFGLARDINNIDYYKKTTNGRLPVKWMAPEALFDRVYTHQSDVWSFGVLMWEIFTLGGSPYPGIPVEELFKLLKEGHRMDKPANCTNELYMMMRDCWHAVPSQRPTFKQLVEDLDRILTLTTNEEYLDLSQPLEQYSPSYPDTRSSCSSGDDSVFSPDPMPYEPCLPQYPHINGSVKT

Molecular target: FGFR2 (cell binding assays) (UniProt P21802)
Experiment: ligand binding assay on intact cells

B1: FGF4 (ligand, UniProt P08620 54-206, looked up)
chain: SLARLPVAAQPKEAAVQSGAGDYLLGIKRLRRLYCNVGIGFHLQALPDGRIGGAHADTRDSLLELSPVERGVVSIFGVASRFFVAMSSKGKLYGSPFFTDECTFKEILLPNNYNAYESYKYPGMFIALSKNGKTKKGNRVSPTMKVTHFLPRL
- binding: binds
